Source: paper PMC3782503
No constants are given. Whether binding was seen depends on the method and setting. In cells and extracts the contact can be indirect. Some binding calls cover weakened binding; strength is not graded here.

Sequences of proteins named here, by UniProt entry; tags and fusion partners are left off. Residues count along the entry.
UniProt P19634: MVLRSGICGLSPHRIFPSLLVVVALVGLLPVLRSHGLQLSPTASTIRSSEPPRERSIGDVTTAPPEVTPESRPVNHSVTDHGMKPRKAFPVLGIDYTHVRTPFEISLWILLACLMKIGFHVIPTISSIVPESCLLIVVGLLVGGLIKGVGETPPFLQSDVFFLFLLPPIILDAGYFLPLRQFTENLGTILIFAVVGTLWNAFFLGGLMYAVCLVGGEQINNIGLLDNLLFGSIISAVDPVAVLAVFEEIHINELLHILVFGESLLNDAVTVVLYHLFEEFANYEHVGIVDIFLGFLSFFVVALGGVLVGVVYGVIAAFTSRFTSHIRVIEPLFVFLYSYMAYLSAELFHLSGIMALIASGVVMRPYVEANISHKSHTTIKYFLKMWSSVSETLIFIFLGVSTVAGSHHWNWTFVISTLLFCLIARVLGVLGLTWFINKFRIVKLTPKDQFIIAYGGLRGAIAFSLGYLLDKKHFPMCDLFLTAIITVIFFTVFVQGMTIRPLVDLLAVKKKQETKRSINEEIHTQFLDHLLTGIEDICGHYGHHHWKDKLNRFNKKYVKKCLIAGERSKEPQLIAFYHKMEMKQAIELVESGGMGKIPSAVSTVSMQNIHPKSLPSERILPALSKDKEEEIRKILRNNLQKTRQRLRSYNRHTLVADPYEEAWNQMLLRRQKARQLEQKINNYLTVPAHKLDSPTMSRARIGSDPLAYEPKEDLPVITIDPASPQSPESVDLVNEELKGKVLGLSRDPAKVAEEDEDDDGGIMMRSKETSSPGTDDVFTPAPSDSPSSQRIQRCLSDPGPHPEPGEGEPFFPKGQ
UniProt P15311: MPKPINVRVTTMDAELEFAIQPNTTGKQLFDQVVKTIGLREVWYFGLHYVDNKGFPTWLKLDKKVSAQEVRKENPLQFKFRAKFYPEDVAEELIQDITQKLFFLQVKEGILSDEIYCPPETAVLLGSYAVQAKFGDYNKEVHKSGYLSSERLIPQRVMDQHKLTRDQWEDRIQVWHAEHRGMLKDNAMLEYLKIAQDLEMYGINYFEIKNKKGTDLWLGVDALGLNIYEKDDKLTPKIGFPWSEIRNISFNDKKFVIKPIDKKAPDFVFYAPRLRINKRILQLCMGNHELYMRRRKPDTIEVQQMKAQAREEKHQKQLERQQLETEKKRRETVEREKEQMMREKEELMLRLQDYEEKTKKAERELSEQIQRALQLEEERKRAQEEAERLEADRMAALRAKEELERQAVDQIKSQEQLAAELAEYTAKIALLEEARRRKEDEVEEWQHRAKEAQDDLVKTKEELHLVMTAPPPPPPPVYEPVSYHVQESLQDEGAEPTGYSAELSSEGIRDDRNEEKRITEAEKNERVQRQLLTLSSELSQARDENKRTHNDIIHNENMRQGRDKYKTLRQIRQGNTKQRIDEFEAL
UniProt P16070, residues 21-742: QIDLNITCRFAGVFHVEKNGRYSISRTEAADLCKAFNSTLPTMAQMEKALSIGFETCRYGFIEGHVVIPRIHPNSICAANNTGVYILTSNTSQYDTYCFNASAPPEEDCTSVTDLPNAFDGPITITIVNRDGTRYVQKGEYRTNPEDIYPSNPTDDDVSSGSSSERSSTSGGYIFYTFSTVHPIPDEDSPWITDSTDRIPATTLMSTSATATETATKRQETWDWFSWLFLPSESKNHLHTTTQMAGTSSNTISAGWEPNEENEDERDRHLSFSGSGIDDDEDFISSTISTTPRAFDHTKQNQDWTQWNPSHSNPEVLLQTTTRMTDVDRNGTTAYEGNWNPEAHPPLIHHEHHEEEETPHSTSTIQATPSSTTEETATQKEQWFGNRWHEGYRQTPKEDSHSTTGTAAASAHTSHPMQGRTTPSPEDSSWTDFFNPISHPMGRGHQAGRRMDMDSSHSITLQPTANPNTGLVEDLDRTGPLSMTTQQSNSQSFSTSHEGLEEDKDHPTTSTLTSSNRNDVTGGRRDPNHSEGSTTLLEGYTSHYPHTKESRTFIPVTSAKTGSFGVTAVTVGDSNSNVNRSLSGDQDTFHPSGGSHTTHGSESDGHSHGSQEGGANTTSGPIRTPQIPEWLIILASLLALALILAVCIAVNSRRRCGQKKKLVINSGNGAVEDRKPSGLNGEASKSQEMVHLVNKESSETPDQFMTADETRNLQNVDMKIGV
UniProt P31323: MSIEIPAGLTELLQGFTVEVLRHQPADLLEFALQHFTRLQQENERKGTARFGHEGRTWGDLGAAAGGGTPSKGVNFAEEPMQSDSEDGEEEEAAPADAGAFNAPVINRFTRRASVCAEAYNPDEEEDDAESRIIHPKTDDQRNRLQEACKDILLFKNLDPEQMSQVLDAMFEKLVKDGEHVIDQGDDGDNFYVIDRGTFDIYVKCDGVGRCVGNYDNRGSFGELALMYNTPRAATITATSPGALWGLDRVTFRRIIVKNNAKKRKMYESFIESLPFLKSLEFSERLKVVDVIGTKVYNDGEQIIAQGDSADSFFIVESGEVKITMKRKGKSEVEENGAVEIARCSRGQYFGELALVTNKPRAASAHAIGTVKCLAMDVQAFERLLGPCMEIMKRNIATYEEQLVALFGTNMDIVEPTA

Legend:
Assay in all cases: co-IP; about 300 µg protein of the membrane or invadopodia fraction of MDA-MB-231 cells plated 24 hr on 2% cross-linked gelatin; 1 µg anti-NHE1, anti-p-ezrin or anti-ezrin, 1 hour at 4°C, then Protein A/G PLUS-Agarose overnight; buffer 50 mM Tris pH 7.5, 150 mM NaCl, 1% NP-40, 0.5% sodium deoxycholate; 4 washes; Western blot
[1] = biological target: Na+/H+ exchanger type 1 (NHE1) (human (endogenous in MDA-MB-231)) (UniProt P19634)
[2] = biological target: ezrin phosphorylated at T567 (human (endogenous in MDA-MB-231)) (UniProt P15311)
[3] = biological target: total ezrin (human (endogenous in MDA-MB-231)) (UniProt P15311)

Row | Substance | binding [1] | binding [2] | binding [3]
1 | ezrin phosphorylated at T567 (from UniProt P15311 1-586) | binds | – | –
2 | CD44 (from UniProt P16070 21-742) (receptor) | binds | – | –
3 | RIIß subunit of PKA (from UniProt P31323 1-418) | binds | binds | binds
4 | Na+/H+ exchanger type 1 (NHE1) (from UniProt P19634 1-815) | – | binds | binds weakly
